According to article PMC11842276:
Like-named read-outs stand apart in the source and are kept apart here. Results are given in words; binding and its absence hold for the method and conditions named. Binding seen in cells or lysates may run through a third protein. Here binding means that the protein was enriched with, or labelled near, the bait; the list need not be complete.

T1: TurboID–ATG8A (A. thaliana) (UniProt Q8LEM4)
T1 sequence: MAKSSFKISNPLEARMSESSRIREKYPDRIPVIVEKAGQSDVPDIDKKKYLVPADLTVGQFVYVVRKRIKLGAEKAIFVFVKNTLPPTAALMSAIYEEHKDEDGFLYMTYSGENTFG


Columns and labels:
[1] = molecular target: T1, TurboID–ATG8A (A. thaliana); assay: proximity labelling; TurboID–ATG8A line, biotin proximity-labelling proteomics under Torin (4 h, 9 µM) and ES20-1 (8 h, 100 µM) treatments; TurboID alone as negative control; n = 3 replicates
[2] = molecular target: T1, TurboID–ATG8A (A. thaliana); assay: as above; remark: listed apart in the source

Row | binding [1] | binding [2] | Molecule
1 | binds |  | TBC/RabGAP1
2 | binds |  | VHA-d
3 |  | binds | VHA-a3 (protein, UniProt Q8W4S4 1-821) MAESGGGGGCCPPMDLMRSETMQLVQLIVPMESAHLTVSYLGDLGLVQFKDLNSEKSPFQRTYAAQIKRCGEMARKIRFFRDQMSKAGVPAKEMQGKENDIDLDDVEVKLGELEAELVEINANNDKLQRSYNELMEYKLVLQKAGEFFSSAHRSAADQQRETESQQAGEDLLESPLLQEEKSIDSTKQVKLGFLTGLVPREKSMVFERILFRATRGNIFIRQTVIEEPVIDPNSGEKAEKNVFVVFYSGERAKSKILKICEAFGANRYPFSEDLGRQAQMITEVSGRLSELKTTIDAGLGQRNILLQTIGDKFELWNLKVRKEKAIYHTLNMLSLDVTKKCLVAEGWSPVFASREIQDALQRAAVDSNSQVGSIFQVLRTKESPPTYFRTNKFTSAIQEIVDAYGVAKYQEANPGVFTIVTFPFLFAVMFGDWGHGICILLATMYLILKEKKLASQKLGDIMEMAFGGRYVILMMSLFSIYTGLIYNEFFSIPFPLFAPSAYDCRDVSCSEATTIGLIKVRDTYPFGLDPVWHGSRSELPFLNSLKMKMSILLGVSQMNLGIIMSYFNARFFKSSVNIWFQFIPQMIFLNSLFGYLSVLIIIKWCTGSQADLYHVMIYMFLSPMDELGENQLFPHQKTLQLVLLFLALVSVPCMLLPKPFILKKQHEARHQGQAYAPLDETDESLHVETNGGGSHGHEEFEFSEIFVHQLIHTIEFVLGAVSNTASYLRLWALSLAHSELSSVFYEKVLLLAWGYNNPLILIVGVLVFIFATVGVLLVMETLSAFLHALRLHWVEFQNKFYEGDGYKFAPFTFIFTANEDE
